Measurements from patent US20220401524A1.
No constants are given. Whether binding was seen depends on the method and setting. Some entries that bind do so weakly or less than the wild type.

Amino acid sequences for entries named in this document (tags omitted). A change or cut given only in a name is not applied to a line headed by its entry.
UniProt P02745: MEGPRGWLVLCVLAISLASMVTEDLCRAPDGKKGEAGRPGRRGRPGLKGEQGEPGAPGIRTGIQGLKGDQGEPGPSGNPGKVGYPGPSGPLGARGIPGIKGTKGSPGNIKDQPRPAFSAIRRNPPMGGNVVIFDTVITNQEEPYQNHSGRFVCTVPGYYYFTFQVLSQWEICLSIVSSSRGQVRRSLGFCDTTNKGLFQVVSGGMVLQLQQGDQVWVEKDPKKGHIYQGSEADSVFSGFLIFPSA
UniProt P04275: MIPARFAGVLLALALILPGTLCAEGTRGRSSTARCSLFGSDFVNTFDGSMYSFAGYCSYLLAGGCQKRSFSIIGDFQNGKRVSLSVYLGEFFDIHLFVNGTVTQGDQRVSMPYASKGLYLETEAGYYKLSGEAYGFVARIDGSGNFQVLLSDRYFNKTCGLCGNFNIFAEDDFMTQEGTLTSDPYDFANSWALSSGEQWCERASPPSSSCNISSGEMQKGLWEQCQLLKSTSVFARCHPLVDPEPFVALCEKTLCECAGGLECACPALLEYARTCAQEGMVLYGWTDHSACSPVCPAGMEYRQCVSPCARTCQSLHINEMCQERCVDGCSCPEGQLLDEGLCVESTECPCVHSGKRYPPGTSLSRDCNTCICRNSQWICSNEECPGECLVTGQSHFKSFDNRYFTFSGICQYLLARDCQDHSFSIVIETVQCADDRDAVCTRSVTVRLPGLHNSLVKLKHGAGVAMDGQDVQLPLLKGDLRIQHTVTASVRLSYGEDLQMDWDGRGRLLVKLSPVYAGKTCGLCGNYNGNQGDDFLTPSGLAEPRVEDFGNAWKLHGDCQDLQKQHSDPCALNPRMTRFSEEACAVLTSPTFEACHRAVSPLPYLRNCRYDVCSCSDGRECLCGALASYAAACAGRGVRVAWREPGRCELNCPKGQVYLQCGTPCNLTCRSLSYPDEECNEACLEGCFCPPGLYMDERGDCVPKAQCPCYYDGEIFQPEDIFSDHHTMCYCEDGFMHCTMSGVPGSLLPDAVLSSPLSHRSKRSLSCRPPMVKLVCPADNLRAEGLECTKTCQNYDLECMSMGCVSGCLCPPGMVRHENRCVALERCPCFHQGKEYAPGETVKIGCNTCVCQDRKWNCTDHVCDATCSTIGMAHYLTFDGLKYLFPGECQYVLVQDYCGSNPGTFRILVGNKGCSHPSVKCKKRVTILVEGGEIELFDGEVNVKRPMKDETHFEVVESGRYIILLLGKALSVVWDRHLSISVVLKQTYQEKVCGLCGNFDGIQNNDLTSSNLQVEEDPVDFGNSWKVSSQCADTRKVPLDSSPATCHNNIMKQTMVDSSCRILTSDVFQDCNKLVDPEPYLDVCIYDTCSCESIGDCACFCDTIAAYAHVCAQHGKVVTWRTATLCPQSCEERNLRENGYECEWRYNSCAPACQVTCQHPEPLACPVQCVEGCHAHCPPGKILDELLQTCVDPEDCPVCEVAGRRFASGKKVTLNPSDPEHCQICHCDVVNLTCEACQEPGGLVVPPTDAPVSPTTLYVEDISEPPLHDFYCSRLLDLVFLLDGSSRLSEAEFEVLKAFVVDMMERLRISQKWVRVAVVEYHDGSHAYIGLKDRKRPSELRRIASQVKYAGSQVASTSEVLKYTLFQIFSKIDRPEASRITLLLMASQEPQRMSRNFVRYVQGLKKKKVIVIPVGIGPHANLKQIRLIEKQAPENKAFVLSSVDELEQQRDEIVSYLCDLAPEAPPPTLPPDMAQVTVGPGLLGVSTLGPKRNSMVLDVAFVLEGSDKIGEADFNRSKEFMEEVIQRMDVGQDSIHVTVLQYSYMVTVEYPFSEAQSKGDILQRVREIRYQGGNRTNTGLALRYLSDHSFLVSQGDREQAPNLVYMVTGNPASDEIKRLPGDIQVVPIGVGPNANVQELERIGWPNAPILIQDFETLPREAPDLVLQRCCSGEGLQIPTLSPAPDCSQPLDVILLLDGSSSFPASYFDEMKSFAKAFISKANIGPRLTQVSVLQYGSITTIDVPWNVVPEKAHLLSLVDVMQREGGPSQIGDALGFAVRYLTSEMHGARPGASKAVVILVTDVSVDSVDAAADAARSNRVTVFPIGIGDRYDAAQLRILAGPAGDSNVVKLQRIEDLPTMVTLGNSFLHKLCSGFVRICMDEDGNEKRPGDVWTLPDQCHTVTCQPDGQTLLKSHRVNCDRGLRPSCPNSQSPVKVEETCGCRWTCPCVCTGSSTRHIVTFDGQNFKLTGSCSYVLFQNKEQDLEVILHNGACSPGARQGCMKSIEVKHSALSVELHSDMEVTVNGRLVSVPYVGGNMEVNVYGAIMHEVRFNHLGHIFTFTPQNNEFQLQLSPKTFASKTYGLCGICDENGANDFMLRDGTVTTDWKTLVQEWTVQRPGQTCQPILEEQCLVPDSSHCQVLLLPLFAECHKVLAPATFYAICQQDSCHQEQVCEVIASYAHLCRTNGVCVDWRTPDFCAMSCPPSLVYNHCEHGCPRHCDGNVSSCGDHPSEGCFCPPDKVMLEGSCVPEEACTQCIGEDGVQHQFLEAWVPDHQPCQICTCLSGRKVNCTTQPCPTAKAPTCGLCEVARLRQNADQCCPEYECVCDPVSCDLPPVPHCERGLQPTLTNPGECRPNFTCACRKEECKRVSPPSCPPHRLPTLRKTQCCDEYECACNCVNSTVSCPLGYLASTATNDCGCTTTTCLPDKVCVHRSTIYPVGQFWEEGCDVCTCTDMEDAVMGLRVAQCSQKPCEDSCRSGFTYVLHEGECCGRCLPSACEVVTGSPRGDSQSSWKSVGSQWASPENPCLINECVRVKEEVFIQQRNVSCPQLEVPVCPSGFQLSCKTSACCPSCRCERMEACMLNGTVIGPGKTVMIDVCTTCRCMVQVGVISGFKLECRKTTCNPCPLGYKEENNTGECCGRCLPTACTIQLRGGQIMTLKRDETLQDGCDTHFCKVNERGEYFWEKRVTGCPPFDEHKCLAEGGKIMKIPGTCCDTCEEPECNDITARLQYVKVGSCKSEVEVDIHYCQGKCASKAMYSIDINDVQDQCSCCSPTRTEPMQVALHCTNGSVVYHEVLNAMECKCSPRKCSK

How the values were obtained:
complement C1q (human) [1] = molecular target: complement C1q (human) (UniProt P02745); assay: cholesterol crystals coated with C1q
complement C1q (human) [2] = molecular target: complement C1q (human) (UniProt P02745); assay: CC-C1q-vWF complexes, flow cytometry
complement C1q (human) [3] = molecular target: complement C1q (human) (UniProt P02745); assay: summary of the binding experiments of Example 1
complement C1q (human) [4] = molecular target: complement C1q (human) (UniProt P02745); assay: rvWF added to surfaces coated with C1q, static and flow
complement C1q (human) [5] = molecular target: complement C1q (human) (UniProt P02745); assay: vWF on surface-bound C1q, static and under shear stress
complement C1q (human) [6] = molecular target: complement C1q (human) (UniProt P02745); assay: discussion of Example 2, cholesterol crystals coated with C1q
complement C1q (human) [7] = molecular target: complement C1q (human) (UniProt P02745); assay: flow cytometry on apoptotic microparticles incubated with C1q and vWF
complement C1q (human) [8] = molecular target: complement C1q (human) (UniProt P02745); assay: flow cytometry and microscopy on cholesterol crystals coated with C1q
complement C1q (human) [9] = molecular target: complement C1q (human) (UniProt P02745); assay: flow cytometry, confocal microscopy and ImageStreamX, C1q immobilized on cholesterol crystals
complement C1q (human) [10] = molecular target: complement C1q (human) (UniProt P02745); assay: flow cytometry, confocal microscopy and imaging flow cytometry on cholesterol crystals coated with C1q

Measured: binding

recombinant von Willebrand factor (from UniProt P04275 764-2813) (ligand)
binds: all assays above
